Measurements from patent US12240871 (dated 2025).
Non-standard residues stand in square brackets, D forms with d. *: point of attachment. Gln(Trt) = N[C@@H](CCC(=O)NC(c1ccccc1)(c1ccccc1)c1ccccc1)C(=O)O; Fmoc = O=C(OCC1c2ccccc2-c2ccccc21)*; NMeF = CN[C@@H](Cc1ccccc1)C(=O)O; NMeA = CN[C@@H](C)C(=O)O; Boc = CC(C)(C)OC(=O)*; OtBu = CC(C)(C)O*

Assay: general procedure: solution-phase peptide synthesis; 2,2-dimethylbutanoyl chloride / triethylamine (mixed anhydride); N,O-bis(trimeth)
Conditions: coupling step

Substance | step yield
Boc-F[NMeF][NMeA]Y-OH | 93%
Boc-F[NMeF][NMeF]F-OH | 92%
Boc-Y[NMeF][NMeF]P-OH | 99%
Boc-[NMeF]F[NMeF][NMeA]Y-OH | 87%
Boc-[NMeF][NMeF][NMeA]Y-OH | 85%
Fmoc-E(OtBu)[NMeF][NMeF][NMeA]Y-OH | 90%
Fmoc-W(Boc)[NMeF][NMeA]F-OH | 86%
Fmoc-[Gln(Trt)][NMeF][NMeA]Y-OH | 62%

Same assay, conditions: late stage modification step

Substance | step yield
H-F[NMeF][NMeA]Y-OH | 99%
